Experimental data as given in publication PMC3753316.
No constants are given. Whether binding was seen depends on the method and setting.

Protein sequences, listed by entry. Tags and fused reporters are not part of them. Lines headed by an entry give the natural chain unless they say otherwise; changes in a name come on top. Chains listed by the source or under a name are the forms on record and can include a tag or linker. Residues count along the entry.
GST-VWF-A2 fusion protein (amino acids P1480-G1672) (P04275, residues 1480-1672): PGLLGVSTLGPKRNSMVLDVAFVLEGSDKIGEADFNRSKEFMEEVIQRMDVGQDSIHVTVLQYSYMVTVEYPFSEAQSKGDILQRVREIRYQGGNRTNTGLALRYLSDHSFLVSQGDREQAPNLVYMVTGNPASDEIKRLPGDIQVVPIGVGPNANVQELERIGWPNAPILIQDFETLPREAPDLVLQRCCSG
recombinant His-tagged VWF-A3 domain (amino acids S1671-G1874) (P04275, residues 1671-1874): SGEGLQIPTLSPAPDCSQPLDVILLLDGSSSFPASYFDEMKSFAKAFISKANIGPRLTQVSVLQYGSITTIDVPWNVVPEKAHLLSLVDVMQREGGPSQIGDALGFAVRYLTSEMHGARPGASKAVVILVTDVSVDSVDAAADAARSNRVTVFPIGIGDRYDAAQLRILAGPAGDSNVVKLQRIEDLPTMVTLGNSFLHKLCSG
UniProt P08603: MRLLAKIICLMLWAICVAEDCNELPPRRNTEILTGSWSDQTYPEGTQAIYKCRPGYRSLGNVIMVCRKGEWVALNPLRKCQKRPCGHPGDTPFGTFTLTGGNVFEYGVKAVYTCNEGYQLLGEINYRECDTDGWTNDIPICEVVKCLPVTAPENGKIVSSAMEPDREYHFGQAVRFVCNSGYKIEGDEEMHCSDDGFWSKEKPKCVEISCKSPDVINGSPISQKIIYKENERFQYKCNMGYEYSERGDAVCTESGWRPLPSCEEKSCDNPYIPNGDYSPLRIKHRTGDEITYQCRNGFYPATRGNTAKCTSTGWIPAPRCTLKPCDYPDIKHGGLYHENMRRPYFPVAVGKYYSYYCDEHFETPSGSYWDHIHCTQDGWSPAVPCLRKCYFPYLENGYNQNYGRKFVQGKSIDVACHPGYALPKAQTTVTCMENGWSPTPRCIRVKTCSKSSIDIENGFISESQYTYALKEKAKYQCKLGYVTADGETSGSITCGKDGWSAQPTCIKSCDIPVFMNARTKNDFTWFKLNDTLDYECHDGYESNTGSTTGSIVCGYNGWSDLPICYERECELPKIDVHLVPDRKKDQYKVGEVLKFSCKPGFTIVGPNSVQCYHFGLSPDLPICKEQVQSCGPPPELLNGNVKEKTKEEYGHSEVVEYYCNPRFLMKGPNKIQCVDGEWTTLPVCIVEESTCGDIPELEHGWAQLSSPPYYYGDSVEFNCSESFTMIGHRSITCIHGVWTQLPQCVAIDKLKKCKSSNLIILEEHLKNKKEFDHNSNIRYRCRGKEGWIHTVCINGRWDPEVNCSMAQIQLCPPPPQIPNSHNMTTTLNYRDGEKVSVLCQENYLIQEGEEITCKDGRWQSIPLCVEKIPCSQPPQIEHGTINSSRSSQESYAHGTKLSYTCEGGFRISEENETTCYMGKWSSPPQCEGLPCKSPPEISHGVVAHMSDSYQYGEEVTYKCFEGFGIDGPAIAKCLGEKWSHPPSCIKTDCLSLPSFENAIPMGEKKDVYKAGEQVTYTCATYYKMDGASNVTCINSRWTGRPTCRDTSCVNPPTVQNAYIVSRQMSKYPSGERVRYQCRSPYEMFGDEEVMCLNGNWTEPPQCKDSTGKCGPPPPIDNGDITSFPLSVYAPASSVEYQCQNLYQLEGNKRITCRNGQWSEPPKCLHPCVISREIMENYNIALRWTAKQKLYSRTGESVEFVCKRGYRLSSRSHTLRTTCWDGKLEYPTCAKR

Assays:
[1] = biological target: recombinant His-tagged VWF-A3 domain (amino acids S1671-G1874) (human) (UniProt P04275); experiment: SPR; Biacore 3000, 25 C; VWF-A2 (1000 RU) or VWF-A3 (800 RU) immobilised; fH 40 to 640 nM, 20 uL/min; for VWF-A2 responses at equilibrium fitted to a one-site binding isotherm; both purified
[2] = biological target: plasma purified human factor H (human) (UniProt P08603); experiment: ELISA; plasma-purified fH (30 nM) coated on the plate; VWF-A1, -A2, -A3 (200 nM each) or VWF (5 ug/ml) incubated 2 h at room temperature, in some experiments with ristocetin (0.5 mg/ml); detected by anti-His or anti-VWF; both purified
[3] = biological target: plasma purified human factor H (human) (UniProt P08603); experiment: co-IP; plasma-purified fH (30 nM) incubated with His-tagged VWF-A1, -A2 (E. coli or HEK 293), -A3 or Myc-tagged VWF-BC (100 nM); precipitated with anti-fH antibody or IgG; blot anti-VWF; both purified
[4] = biological target: ovalbumin (UniProt P01012); experiment: SPR; Biacore; F1, F2, F3 or F4 at 10 ug/ml injected for 60 s over immobilised VWF-A2, VWF or ovalbumin (negative control), dissociation 2 min; both purified
[5] = biological target: GST-VWF-A2 fusion protein (amino acids P1480-G1672) (human) (UniProt P04275); experiment: pull-down; GST-VWF-A2 (100 nM) incubated with recombinant F4, F3, F2 or F1 (30 nM each); glutathione agarose beads, overnight 4 C; blot polyclonal or monoclonal (90X) anti-fH; both purified

| binding [4] | Substance | further results |
| --- | --- | --- |
|  | plasma purified human factor H (from UniProt P08603 19-1231) | binding [1]: no binding (tested: 640 nM) |
|  | recombinant His-tagged VWF-A3 domain (amino acids S1671-G1874) (from UniProt P04275 1671-1874) (domain or fragment) | binding [2]: no binding (tested: 200 nM); binding [3]: no binding (tested: 100 nM) |
| no binding | recombinant full-length wild type human fH (F4 with SCRs 1-20, amino acids M1-R1231) (from UniProt P08603 19-1231) |  |
| no binding | truncated fH F1 with SCRs 1-5, amino acids M1-K323 (from UniProt P08603 19-323) (domain or fragment) | binding [5]: no binding (tested: 30 nM) |
| no binding | truncated fH F2 with SCRs 1-10, amino acids M1-E625 (from UniProt P08603 19-625) (domain or fragment) |  |
| no binding | truncated fH F3 with SCRs 1-15, amino acids M1-G928 (from UniProt P08603 19-928) (domain or fragment) |  |
